PubChem BioAssay AID1259297 – Sanger Institute | 2017

Test: 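Kinases whose loss kills cells on their own or with targeted drugs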 (primary screen)
Cells: human RCM1 colorectal cancer cell line
Reagent: siRNA pool against human genes
Challenge: separate arms: DMSO vehicle, or one anchor drug at a mild dose: BYL719 1 µM, cetuximab 5 µg/ml, trametinib 10 nM
Measurement: 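Replicate-mean well viability as a share of non-targeting pool control, a robust z-score without drug, and synergy scores for BYL719, cetuximab and trametinib arms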
Direction: viability z-score, knock-down alone: higher = more viable cells than non-targeting controls
Rule for the call: 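Called essential if knock-down without drug gives a viability robust z-score under -3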
Calls: active = essential when knocked down alone; inactive = no clear loss of viability alone
The deposit covers 794 reagents; shown is a part drawn at random. Of all reagents, 13 (1.6%) got an active call. 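Calls reflect knock-down without drug only; drug synergy is judged separately, with scores above 0.15 counted as synergy.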 A number with no mark means an inactive call. Further read-outs or replicates are left out here. Not stated in the record: the amount of reagent, the time to read-out.

| gene knocked down | viability z-score, knock-down alone |
| --- | --- |
| CASK (GeneID 8573) | -1.48 |
| CSNK1G3 (GeneID 1456) | 0.9 |
| PANK3 (GeneID 79646) | 0.627 |
| EFNA4 (GeneID 1945) | -0.628 |
| ERN1 (GeneID 2081) | -2.02 |
| ROCK2 (GeneID 9475) | 0.9 |
| MAPK11 (GeneID 5600) | 0.803 |
| TSSK4 (GeneID 283629) | 0.9 |
| RIPK2 (GeneID 8767) | 0.9 |
| STK39 (GeneID 27347) | -3.3 (active) |
| TRIB1 (GeneID 10221) | 0.9 |
| STK3 (GeneID 6788) | 0.43 |
| BRD4 (GeneID 23476) | 0.835 |
| AKT2 (GeneID 208) | -0.893 |
| SCYL1 (GeneID 57410) | 0.9 |
| TSSK1B (GeneID 83942) | 0.411 |
| MATK (GeneID 4145) | 0.713 |
| ERBB4 (GeneID 2066) | -1.45 |
| CDK20 (GeneID 23552) | -2.1 |
| DGKK (GeneID 139189) | 0.556 |
| EFNA3 (GeneID 1944) | 0.9 |
| OXSR1 (GeneID 9943) | 0.623 |
| NEK8 (GeneID 284086) | -0.436 |
| CSNK1G2 (GeneID 1455) | 0.576 |
| DLG1 (GeneID 1739) | -0.442 |
| JAK2 (GeneID 3717) | -0.919 |
| AXL (GeneID 558) | 0.9 |
| GALK2 (GeneID 2585) | 0.468 |
| AGK (GeneID 55750) | 0.879 |
| FLT4 (GeneID 2324) | -0.207 |
| PIK3R1 (GeneID 5295) | 0.9 |
| DAPK1 (GeneID 1612) | -1.71 |
| HK3 (GeneID 3101) | 0.9 |
| IP6K1 (GeneID 9807) | 0.9 |
| CSF1R (GeneID 1436) | -1.19 |
| CKS2 (GeneID 1164) | 0.186 |
| MAP3K11 (GeneID 4296) | 0.9 |
| PSTK (GeneID 118672) | -0.501 |
| RPS6KL1 (GeneID 83694) | 0.673 |
| PIP5K1C (GeneID 23396) | 0.135 |
| EPHA1 (GeneID 2041) | 0.612 |
| MARK1 (GeneID 4139) | -0.241 |
| PIK3C2A (GeneID 5286) | -1.58 |
| EGFR (GeneID 1956) | 0.152 |
| PHKA2 (GeneID 5256) | -1.39 |
| TLK1 (GeneID 9874) | -1.53 |
| ABL1 (GeneID 25) | 0.9 |
| CDK11A (GeneID 728642) | -1.45 |
| KMT2B (GeneID 9757) | 0.9 |
| TAF1L (GeneID 138474) | 0.716 |
| BRD2 (GeneID 6046) | 0.9 |
| RPS6KA2 (GeneID 6196) | -0.267 |
| PIP5K1B (GeneID 8395) | 0.000614 |
| PASK (GeneID 23178) | 0.9 |
| CAMK1 (GeneID 8536) | 0.439 |
| CAMKV (GeneID 79012) | 0.492 |
| CTCF (GeneID 10664) | -0.264 |
| PKN1 (GeneID 5585) | 0.9 |
| MAP3K7 (GeneID 6885) | 0.362 |
| PRKAR2B (GeneID 5577) | -1.51 |
| CPNE3 (GeneID 8895) | -0.298 |
| DBF4 (GeneID 10926) | 0.9 |
| TSSK2 (GeneID 23617) | -1.21 |
